# According to PubChem BioAssay AID493014 (National Center for Advancing Translational Sciences (NCATS), 2011):
# The campaign covered roughly 340,000 compounds. About 170 (0.05%) were called active. The shares of active, inactive and inconclusive entries below differ from those in the screen. The call rests on the fitted dose curve; in most records, active means well fitted inhibition curve with a large enough effect in the signal ratio, with a control signal flat (not every such curve was filed as active); inconclusive means small, poorly fitted or top-dose-only effect, or effect the other way, or a change in a side signal; inactive means flat fitted curve, though single readings scatter; the % refers to the signal ratio. A potency beside an inconclusive call is a rough fit, not a confirmed value.
# Experiment: qHTS Assay to Find Inhibitors of Chronic Active B-Cell Receptor Signaling;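 on activity change, negative = inhibition: plate controls were basal doxycycline-induced cells for no effect and cells given 10 µM MG132 for full effect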
# Settings: ABC-DLBCL IkBa-CBG/CBR reporter, luminescence ratio (green luciferase fused to IkBa over red control in TMD8 lymphoma cells), 4 h; activity change, negative = inhibition: at 46.1 µM (top of the series) unless noted
# Outline: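 Doxycycline induced both beetle luciferases in TMD8 lymphoma cells; IKK-driven degradation limits the IkappaBalpha-fused green signal, while red luminescence normalises for cell number and nonspecific effects. Compounds tested up to 46 uM, 4 hrs.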
# Potency means the concentration at half of the fitted maximal effect.
SMILES,Potency,"activity change, negative = inhibition"
CC1=Nc2cc(C(=O)NCc3ccco3)ccc2Sc2ccc(C)cc21,"inconclusive: 2.31 µM [falling, partial curve, poor fit]",–
O=C(c1cccs1)N1CCN=C1SCc1ccc(F)cc1,–,inconclusive: -0.683%
Cc1[nH]n(C(N)=S)c(=O)c1C(c1ccccc1)C(C#N)C#N (centres undefined),–,inconclusive: 8.83%
O=C(CSc1nnc(-c2ccc(Cl)s2)o1)N1CCc2ccccc21,–,inactive
COC(=O)c1cc(C#N)c(OC(C)C)nc1C,–,inconclusive: -0.325%
CC(C)(C)C(=O)NC(Nc1cccc2cccnc12)C(Cl)(Cl)Cl (centres undefined),–,inconclusive: 14.1%
CCCNC(=S)N1CCN(C(c2ccccc2)c2ccccc2)CC1,–,inactive
O=C(NC(=S)Nc1ccc(O)cc1)c1ccccc1Cl,"inconclusive: 25.1 µM [falling, partial curve, poor fit]",–
CCCN(CCC)CCNC(=O)CCC(=O)Nc1ccc2nc(N3CCN(C)CC3)cc(C)c2c1,"inconclusive: 8.91 µM [falling, partial curve]",–
CCCc1[nH]nc2c1C(c1cn[nH]c1-c1ccc(F)cc1)C(C#N)=C(N)O2 (centres undefined),"inconclusive: 3.26 µM [falling, partial curve, poor fit]",–
CCc1ccc(NC(=O)C2CCN(C(=O)[C@@H]3Cc4ccccc4CN3)CC2)cc1,–,inconclusive: 10.3%
COc1ccccc1N1CCN(/N=C/c2ccc([N+](=O)[O-])cc2)CC1,–,inconclusive: 5.57%
COc1ccc(Sc2nc3ccccc3n3c(C(F)(F)F)nnc23)cc1,"inconclusive: 20 µM [falling, partial curve, poor fit]",–
C1=Nc2c(NCc3ccccc3)ncnc2Oc2ccccc21,"inconclusive: 18.4 µM [falling, single point]",–
Cc1ccc(-c2nc3cc(Cl)ccc3o2)cc1,–,inconclusive: 15.6%
CC(C)Cn1c(SCc2nnc(-c3cccs3)o2)nc(O)cc1=O,–,inconclusive: -91.4%
COc1ccc(CNC(=O)CNC(=O)c2ccc(Br)o2)cc1OC,–,inactive
CSc1cccc(NC(=S)Nc2ccc(F)cc2)c1,–,inconclusive: -4.81%
C#CCN(Cc1ccccc1)S(=O)(=O)C=C,–,inconclusive: -6.74%
Cc1ccccc1OCCn1nc(C(=O)O)c2ccccc2c1=O,–,inconclusive: -11.7%
CC(C)CN(CC(C)C)c1nc(N)c(C#N)c(CC#N)c1C#N,–,inconclusive: 0.459%
CC(C(=O)O)N1CCCCC1 (centres undefined),–,inactive
S=c1[nH]nc(-c2ccccn2)n1/N=C/c1ccc(Cl)cc1,–,inactive
COC(=O)CN1C(c2ccc(Cl)cc2)=Nc2ccc(Cl)cc2C1c1ccccc1 (centres undefined),"inconclusive: 29.1 µM [rising, single point]",–
C/C(=N\Nc1ccc(Cl)cc1)c1ccncc1,–,inconclusive: -1.73%
CCN(Cc1ccccc1)S(=O)(=O)c1ccc(OC)cc1,–,inconclusive: -1.06%
O=C(Nc1ccc(F)c(F)c1)c1ccc(F)c(S(=O)(=O)N2CCC3(CC2)OCCO3)c1,–,inconclusive: -7.58%

SMILES,Potency,"activity change, negative = inhibition"
Cc1cccc(N=c2oc3cc(O)ccc3cc2C(N)=O)c1,–,inconclusive: 187%
CC1(C(=O)O)Sc2[nH]c(=O)sc2C2c3ccccc3OC(=O)C21 (centres undefined),"inconclusive: 12.6 µM [falling, partial curve, poor fit]",–
C[C@H](CO)N1C[C@H](C)[C@@H](CN(C)Cc2ccc(Cl)c(Cl)c2)Oc2c(NC(=O)C3CCOCC3)cccc2C1=O,–,inconclusive: -7.64%
COc1ccc(C(=O)N=C2CCC(C#N)=C3c4cc(OC)c(OC)cc4CCN23)cc1,"inconclusive: 20.6 µM [falling, single point]",–
O=C(CCCc1nc(-c2ccccc2)no1)N1CCOCC1,"inconclusive: 5.01 µM [rising, partial curve, poor fit]",–
Cn1c(=O)cc(SCC(=O)N2CCN(C(=O)c3ccco3)CC2)c2ccccc21,"inconclusive: 16.4 µM [falling, single point]",–
CCOc1ccc(NC(=S)N2CCCC2)cc1,–,inactive
CCOC(=O)[C@H]1[C@H]2COc3ccccc3[C@@H]2N2C(=O)c3cc(F)ccc3NC(=O)[C@@]12C,–,inconclusive: 0.618%
Cc1onc(-c2ccccc2Cl)c1C(=O)NC1CCCCCC1,–,inconclusive: -0.566%
Cc1c(N)cccc1-c1nc2ccccc2[nH]1,"inconclusive: 2.59 µM [falling, partial curve]",–
Cc1cc(C)c2c(c1)/C(=N/NS(=O)(=O)c1ccccc1)CCC2,–,inactive
COC(=O)c1c(-c2ccc(C)cc2)csc1NC(=S)NC(=O)c1cc(OC)cc(OC)c1,"inconclusive: 1.84 µM [falling, full curve]",–
CN(C)S(=O)(=O)N1CCC(Oc2cccc(C(=O)NCCCC3CCCC3)c2)CC1,"inconclusive: 5.62 µM [falling, partial curve, poor fit]",–
Cc1ccc(-c2nnc(Nc3ccc(O)cc3)c3ccccc23)cc1S(=O)(=O)NCCO,"inconclusive: 22.4 µM [falling, partial curve]",–
O=C(NCc1ccccc1)c1ccc(Br)cc1Br,–,inconclusive: 7.45%
COc1ccc(Cl)cc1C(=O)Nn1c(-c2cccs2)nc2ccccc2c1=O,–,inconclusive: 2.76%
CCCCCOc1ccc(NC(=O)CSc2cccc3cccnc23)cc1,"inconclusive: 20.6 µM [falling, single point]",–
COCCNC(=O)c1cccc(S(=O)(=O)N2CC3(C)CC2CC(C)(C)C3)c1 (centres undefined),–,inactive
O=C(Nc1cccc([N+](=O)[O-])c1)N1CCCc2ccccc21,–,inconclusive: 1.85%
O=C(Nc1ccc(F)cc1F)c1cc(-c2ccc3c(c2)OCO3)on1,"inconclusive: 0.316 µM [falling, full curve, poor fit]",–
Cc1cc(C)cc(OCc2ccc(C(=O)O)o2)c1,"inconclusive: 16.4 µM [falling, single point]",–
COc1nc(Cl)cn(-c2ccc(Cl)cc2)c1=O,–,inconclusive: -18.6%
Cc1ccc(Nc2nc3nonc3[nH]c2=O)cc1C,"inconclusive: 16.4 µM [falling, partial curve]",–
Cc1ccccc1C(=O)c1cccn1CC(=O)NCc1ccc2c(c1)OCO2,"inconclusive: 20.6 µM [falling, single point]",–
O=C(COC(=O)c1ccc(S(=O)(=O)NCc2ccco2)cc1)Nc1ccc(Cl)cn1,–,inactive
COc1ccc(S(=O)(=O)Nc2cccc(S(=O)(=O)N3CCCC3)c2)cc1OC,–,inactive
O=C(c1ccccc1)c1c[nH]c(C(=O)NNc2ccccc2)c1,"inconclusive: 10 µM [falling, partial curve]",–

# Random excerpt: three records from the list.
SMILES,Potency,"activity change, negative = inhibition"
Cc1onc(-c2ccccc2Cl)c1C(=O)NC1CCCCCC1,–,inconclusive: -0.566%
O=C(Nc1cccc([N+](=O)[O-])c1)N1CCCc2ccccc21,–,inconclusive: 1.85%
Cn1c(=O)cc(SCC(=O)N2CCN(C(=O)c3ccco3)CC2)c2ccccc21,"inconclusive: 16.4 µM [falling, single point]",–

# Three structures already listed, ordered by count of non-hydrogen atoms, low to high:
SMILES,Potency,"activity change, negative = inhibition"
C1=Nc2c(NCc3ccccc3)ncnc2Oc2ccccc21,"inconclusive: 18.4 µM [falling, single point]",–
Cn1c(=O)cc(SCC(=O)N2CCN(C(=O)c3ccco3)CC2)c2ccccc21,"inconclusive: 16.4 µM [falling, single point]",–
CCOC(=O)[C@H]1[C@H]2COc3ccccc3[C@@H]2N2C(=O)c3cc(F)ccc3NC(=O)[C@@]12C,–,inconclusive: 0.618%

# Continued.

SMILES,Potency,"activity change, negative = inhibition"
CCN(Cc1ccncc1)C(=O)c1ccccc1NS(=O)(=O)c1ccc(Br)cc1,–,inconclusive: 2.18%
COc1ccc(Br)cc1C1CC(=O)N2CN(Cc3ccccc3)CSC2=C1C#N (centres undefined),–,inactive
CCOc1ccc(-n2c(-c3ccco3)n[nH]c2=S)cc1,–,inconclusive: 1.78%
N#Cc1ccc(CSc2nc(N)cc(N)n2)cc1,–,inconclusive: -25.4%
O=C(NCCNC1CCC(c2ccccc2)CC1)c1cccs1 (centres undefined),–,inactive
COC(=O)C(NC(=O)c1ccccc1)=C(C)C,–,inactive
COCCn1c(C)cc(/C=C(\C#N)C(=O)OCC(=O)Nc2ccc(S(N)(=O)=O)cc2)c1C,–,inconclusive: 0.253%
Nc1ccccc1C(=O)N=Nc1[nH]c(N)c2ccccc12,"inconclusive: 4.11 µM [falling, single point]",–
CCC(C)c1ccc(S(=O)(=O)N2CCN(C(=O)COc3ccc4c(C)cc(=O)oc4c3)CC2)cc1 (centres undefined),"inconclusive: 7.31 µM [falling, partial curve]",–
N#Cc1ccccc1NC(=O)c1cccc(COc2ccc(Cl)cc2Cl)c1,"inconclusive: 29.1 µM [falling, single point]",–
Cc1cc(F)c(F)c(C(=O)N2CCN(C)CC2)c1Cl,–,inconclusive: 0.897%
Cc1csc(NC(=O)c2ccc(COc3ccccc3)o2)n1,–,inconclusive: -0.402%
COc1ccccc1N1CCN(c2nc3ccccc3nc2C(C#N)C(=O)OC(C)C)CC1 (centres undefined),–,inconclusive: 15.9%
COc1ccc(Cc2nc(-c3ccc(Cl)cc3)no2)cc1,–,inconclusive: 5.31%
O=C(C[n+]1ccc2ccccc2c1)c1ccccc1,–,inconclusive: 0%
COc1cc(OC)cc(C(=O)N[C@@H](CCSC)c2nc3ccccc3[nH]2)c1,–,inconclusive: -9%
O=C(c1ccc(Cl)cc1)N1CCCC(c2ccccc2)=N1,"inconclusive: 11.2 µM [falling, partial curve]",–
Cc1cc(C(=O)Nc2nc3ccc(Cl)cc3s2)nn1C,"inconclusive: 3.16 µM [falling, full curve]",–
O=C(/C=C/c1ccc(F)cc1)NCCCN1CCN(CCCNC(=O)/C=C/c2ccc(F)cc2)CC1,–,inconclusive: -1.5%
COc1cc(N)c(Cl)cc1C(=O)OCC(=O)Nc1cccnc1Cl,–,inconclusive: 1.06%
CN(C)S(=O)(=O)c1cccc(NC(=S)Nc2cccc3cnccc23)c1,–,inconclusive: 7.94%
CCOc1ccc(/C=C2\CCc3ccccc3C2=O)cc1,–,inconclusive: 2.39%
COc1ccc(OC)c(NC(=O)CSC2=Nc3ccccc3C3=NC(CCC(=O)NC4CCCCC4)C(=O)N23)c1 (centres undefined),–,inactive
O=C(N/N=C/C=C/c1ccco1)c1cccc([N+](=O)[O-])c1,–,inconclusive: -0.0266%
Cn1cccc1C(=O)NC(=O)COC(=O)CNC(=O)c1ccc(Cl)cc1Cl,–,inconclusive: 6.47%
